In this test the target is T1, Est1, C-terminally strep-tagged (S. cerevisiae, UniProt P17214 1-699).
T1 construct: Est1, telomerase subunit of Saccharomyces cerevisiae; The carboxyl terminal tag consists of a G8 linker, 5x Strep-Tag II and a HAT tag (Clontech); also called Strep-tagged Est1; not shown: 5x Strep-Tag II, C-terminal, kept; HAT tag, C-terminal, kept
T1 sequence (looked up): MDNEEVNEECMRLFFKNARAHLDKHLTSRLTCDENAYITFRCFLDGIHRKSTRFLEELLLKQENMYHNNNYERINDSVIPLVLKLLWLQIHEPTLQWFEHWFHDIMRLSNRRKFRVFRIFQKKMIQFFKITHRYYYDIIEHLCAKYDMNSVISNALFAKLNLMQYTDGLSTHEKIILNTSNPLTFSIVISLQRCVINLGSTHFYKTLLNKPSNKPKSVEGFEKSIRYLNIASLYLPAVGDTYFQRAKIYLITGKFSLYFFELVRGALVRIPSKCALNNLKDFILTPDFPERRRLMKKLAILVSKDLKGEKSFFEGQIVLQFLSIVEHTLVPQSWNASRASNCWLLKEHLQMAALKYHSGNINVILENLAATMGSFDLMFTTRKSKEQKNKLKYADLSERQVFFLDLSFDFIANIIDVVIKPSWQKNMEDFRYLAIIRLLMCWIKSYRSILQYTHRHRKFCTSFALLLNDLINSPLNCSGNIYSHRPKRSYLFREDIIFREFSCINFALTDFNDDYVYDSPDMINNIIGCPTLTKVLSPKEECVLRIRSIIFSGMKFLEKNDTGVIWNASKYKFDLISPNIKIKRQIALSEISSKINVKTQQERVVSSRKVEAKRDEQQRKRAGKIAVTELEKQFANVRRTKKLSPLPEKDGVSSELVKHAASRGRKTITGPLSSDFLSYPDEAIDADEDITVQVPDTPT
Briefly: pull-down; magnetic beads pull-down: Est1 captured by its C-terminal strep tag on Dynabeads streptavidin M280; 1 µM each of Est1 and Est3 in 20 mM Tris-HCl pH 7.5, 100 mM NaCl, 0.2% Triton X-100, 20 µg/mL BSA; 15 min on ice, 30 min with beads at 4°C; Coomassie staining; both purified.

The chains behind the UniProt entries cited, without tags or fusion partners. Residues count along the entry.
UniProt P02769, residues 25-607: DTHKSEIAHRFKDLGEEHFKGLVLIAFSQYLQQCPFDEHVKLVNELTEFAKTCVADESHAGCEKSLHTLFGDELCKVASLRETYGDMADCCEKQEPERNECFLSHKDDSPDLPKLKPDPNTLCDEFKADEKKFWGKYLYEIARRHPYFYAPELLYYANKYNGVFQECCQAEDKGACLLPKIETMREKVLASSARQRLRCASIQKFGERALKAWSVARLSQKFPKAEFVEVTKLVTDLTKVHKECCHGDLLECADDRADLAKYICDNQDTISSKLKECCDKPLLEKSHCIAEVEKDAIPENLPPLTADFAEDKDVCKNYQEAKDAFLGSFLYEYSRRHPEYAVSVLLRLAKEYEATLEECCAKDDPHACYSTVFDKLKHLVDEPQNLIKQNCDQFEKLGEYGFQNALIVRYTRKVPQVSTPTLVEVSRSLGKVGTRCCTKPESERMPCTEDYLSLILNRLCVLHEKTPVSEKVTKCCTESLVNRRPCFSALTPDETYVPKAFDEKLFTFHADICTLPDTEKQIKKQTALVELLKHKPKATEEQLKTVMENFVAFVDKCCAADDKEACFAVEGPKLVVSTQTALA

Results are given in words; binding and its absence hold for the method and conditions named. Where a sequence is shown, tags or fusion partners need not be part of it.

In the case of BSA (from UniProt P02769 25-607), the binding result is “no binding (tested: 20 µg/mL BSA)”.

Source of the values: article PMC3088721, “The Saccharomyces cerevisiae Telomerase Subunit Est3 Binds Telomeres in a Cell Cycle– and Est1–Dependent Manner and Interacts Directly with Est1 In Vitro” (PLoS Genetics, 2011).
